Measurements from the supplement of paper PMC3047530.
The other results are listed elsewhere or left out. Repeats are few or missing, and single values can be far off.

Test system: Geomyces destructans
Assay: growth inhibition relative to DMSO control; higher = stronger growth inhibition
Conditions: 10 µM; 15 °C; incubation time 10 days

Row | SMILES | growth inhibition
1 | CCOC(=O)C1=C[C@]2(CC)CCCN3CCc4c(n1c1ccccc41)[C@@H]32 | -7.71%
2 | CC(=O)c1cc2c(cc1O)OC(C)(C)C=C2 | -16%
3 | COc1cnc(NS(=O)(=O)c2ccc(N)cc2)nc1 | 0.5%
4 | O=C(O)CCC(=O)Nc1ccc(S(=O)(=O)Nc2nccs2)cc1 | -5.39%
5 | Cc1cccc(CN2CCN(C(c3ccccc3)c3ccc(Cl)cc3)CC2)c1 (stereo not given) | 1.31%
6 | C=C1C[C@]23C[C@@]1(O)CC[C@H]2[C@@]12C=C[C@H](O)[C@@](C)(C(=O)O1)[C@H]2[C@@H]3C(=O)O | -21.5%
7 | COC(=O)c1c(OC)cc2c(c1C)Oc1c(Cl)c(OC(C)=O)c(Cl)c(C)c1C(=O)O2 | -2.68%
8 | COc1cc(O)cc(/C=C/c2ccccc2)c1 | 24.7%
9 | COc1ccc(-c2cc(=O)c3c(O)cc(O[C@@H]4O[C@H](CO[C@@H]5O[C@@H](C)[C@H](O)[C@@H](O)[C@H]5O)[C@@H](O)[C@H](O)[C@H]4O)cc3o2)cc1O | -1.21%
10 | COC(=O)C[C@H]1C(C)(C)[C@@H](O)[C@@H]2CC3=C4CC(O)O[C@@H](c5ccoc5)[C@]4(C)CCC3[C@@]1(C)C2=O (stereo partly drawn) [3,16-DIDEOXYMEXICANOLIDE-3beta-DIOL] | -2.38%
11 | CC(=O)Oc1cc2c(c(C)c1OC(C)=O)CC1OC13[C@@]2(C)CC[C@@]1(C)C2C[C@](C)(C(=O)O)CC[C@]2(C)CC[C@]31C (stereo not given in full) | 6.09%
12 | NC(=O)NC(=O)Cc1ccccc1 | -16.2%
13 | COc1cc(C)c(C(=O)Oc2cc(C)c(C(=O)O)c(O)c2C)c(O)c1C=O | 7.71%
14 | c1ccc2[nH]c(-c3cscn3)nc2c1 | -5.57%
15 | CN1[C@@H](CC(=O)c2ccccc2)CCC[C@H]1C[C@H](O)c1ccccc1 | -1.6%
16 | C=C1C(=O)O[C@@H]2C[C@@]3(C)CCC[C@H](C)C3=C[C@H]12 | -36.1%
17 | CC(C)(OC(=O)c1ccccc1)[C@@H]1Cc2cc3ccc(=O)oc3cc2O1 | -6.19%
18 | CC1CCC(C(C)C)C(O)C1 (single isomer, unassigned; (-)) | -7.71%
19 | CNCCC(Oc1ccc(C(F)(F)F)cc1)c1ccccc1 (stereo not given) | -22.5%
20 | COc1ccc(C(=O)/C=C/c2ccccc2)cc1 | 5.74%
21 | C=C1C2CCC3(C)C(c4ccoc4)OC(=O)CC13OC1CC(OC(C)=O)C(C)(C)C(CC(=O)OC)C12C (stereo not drawn) [3beta-ACETOXYDEOXYANGOLENSIC ACID, METHYL ESTER] | -8.54%
22 | CCCCCCCCCCCCC[N+](C)(C)Cc1ccccc1 | 86.3%
23 | O=S(=O)(O)CCS | -3.31%
24 | CCn1cc(C(=O)O)c(=O)c2cnc(N3CCCC3)nc21 | -7.18%
25 | CC(=O)[C@H]1CC[C@H]2[C@@H]3C[C@H](C)C4=CC(=O)CC[C@]4(C)[C@H]3[C@@H](O)C[C@]12C | -2.05%

Row | SMILES | growth inhibition
26 | O[C@H]1[C@H]2c3cc4c(cc3CN3CCC(=C[C@@H]1O)[C@H]23)OCO4 | -3.8%
27 | CCCCNC(=O)NS(=O)(=O)c1ccc(C)cc1 | -11.9%
28 | O=C(O)c1cc(-c2ccc(F)cc2F)ccc1O | 17.7%
29 | COC(=O)[C@@H]1[C@H]2C[C@H]3c4[nH]c5ccccc5c4CCN3C[C@@H]2CC[C@@H]1O | -33.6%
30 | C=C(C)[C@@H]1CC=C(C(=O)O)CC1 | 41%
31 | CC1(C)NC(=O)N(c2ccc([N+](=O)[O-])c(C(F)(F)F)c2)C1=O | -32.6%
32 | CCCCCCc1ccc(O)cc1O | 22.2%
33 | CC(C)=CCC[C@](C)(O)C1CC=C(C)CC1 (stereo not given in full) | -5.57%
34 | CCOC(=O)C(=O)C1(C(=O)OCC)Oc2cc(OC)cc(OC)c2C(=O)C1c1ccccc1 (stereo not given) | -14%
35 | CC(C)NCC(O)COc1cccc2ccccc12 (stereo not given) | -5.77%
36 | COC(=O)C[C@H]1C(C)(C)C(=O)[C@@H]2CC3=C4CC(=O)O[C@@H](c5ccoc5)[C@]4(C)CC[C@@H]3[C@@]1(C)C2=O | -18.7%
37 | COc1ccc(C(=O)CC(=O)O)c2c1C=CC(C)(C)O2 | -1.43%
38 | COc1ccc2cc1Oc1ccc(cc1)C[C@H]1c3cc(c(OC)cc3CCN1C)Oc1c(OC)c(OC)cc3c1[C@H](C2)N(C)CC3 | -3.42%
39 | Sc1nc2ccccc2s1 | -24.4%
40 | O=C1CCc2cc(OCCCCc3nnnn3C3CCCCC3)ccc2N1 | -21.4%
41 | CCS(=O)(=O)CCn1c([N+](=O)[O-])cnc1C | -38%
42 | COc1cc(OC)c2c(c1)OC(c1ccccc1)CC2=O (stereo not given) | -5.51%
43 | CCCCOc1cc(C(=O)NCCN(CC)CC)c2ccccc2n1 | -6.08%
44 | COc1ccc(CN(CCN(C)C)c2ccccn2)cc1 | 5.69%
45 | CCCNC(C)C(=O)Nc1ccccc1C (stereo not given) | -10.4%
46 | Nc1ncn([C@@H]2O[C@H](CO)[C@@H](O)[C@H]2O)c(=O)n1 | -3.31%
47 | CC(COc1ccccc1)N(CCCl)Cc1ccccc1 (stereo not given) | -6.23%
48 | C=C1c2cccc(O)c2C(=O)C2=C(O)[C@]3(O)C(=O)C(C(N)=O)=C(O)[C@@H](N(C)C)[C@@H]3[C@@H](O)[C@H]12 | -17.3%
49 | COc1cc2cc3c4cc(OC)c(OC)cc4cc[n+]3c(C)c2cc1OC | -6.41%
50 | C#CCCCCCCCCCCCC(=O)CC(O)COC(C)=O (stereo not given) | -5.92%

Row | SMILES | growth inhibition
51 | Cn1c(=O)c2nc[nH]c2n(C)c1=O | -18.7%
52 | CC(C)(C)NC[C@H](O)COc1nsnc1N1CCOCC1 | -22.2%
53 | C[C@]12CCC(=O)C=C1CC[C@@H]1[C@@H]2[C@@H](O)C[C@@]2(C)[C@H]1CC[C@]2(O)C(=O)COC(=O)CCC(=O)O | -5.11%
54 | NC1(C(=O)O)CCCC1 | -6.14%
55 | NCCCC[C@H](N[C@@H](CCc1ccccc1)C(=O)O)C(=O)N1CCC[C@H]1C(=O)O | -6.22%
56 | O=C(Oc1cc(OC(=O)c2ccccc2)c2c(c1)O[C@H](c1ccc(OC(=O)c3ccccc3)c(OC(=O)c3ccccc3)c1)[C@@H](OC(=O)c1ccccc1)C2)c1ccccc1 | 1.65%
57 | COc1ccc(-c2coc3c(OC)c(O)ccc3c2=O)cc1 | -16.3%
58 | O=C(Cc1cccs1)N[C@@H]1C(=O)N2C(C(=O)[O-])=C(C[n+]3ccccc3)CS[C@H]12 | -3.47%
59 | CO/N=C(\C(=O)N[C@@H]1C(=O)N2C(C(=O)O)=C(CSc3nc(=O)c(O)nn3C)CS[C@H]12)c1csc(N)n1 | -7.99%
60 | CCOC(=O)OC(C)OC(=O)[C@@H]1N2C(=O)[C@@H](NC(=O)[C@H](N)c3ccccc3)[C@H]2SC1(C)C (stereo not given in full) | -3.47%
61 | CCOC(=O)[C@H](CCc1ccccc1)N[C@H]1CCc2ccccc2N(CC(=O)O)C1=O | -25.7%
62 | CC(=O)N[C@@H](CC(C)C)C(=O)O | 3.45%
63 | Nc1nc(=O)c2nc(CNc3ccc(C(=O)N[C@@H](CCC(=O)O)C(=O)O)cc3)cnc2[nH]1 | -4.31%
64 | CC[C@H]1OC(=O)[C@H](C)[C@@H](O[C@H]2C[C@@](C)(OC)[C@@H](O)[C@H](C)O2)[C@H](C)[C@@H](O[C@@H]2O[C@H](C)C[C@H](N(C)C)[C@H]2O)[C@](C)(O)C[C@@H](C)/C(=N\OCOCCOC)[C@H](C)[C@@H](O)[C@]1(C)O | 0.462%
65 | CC(C)(O)[C@@H]1Cc2cc3ccc(=O)oc3cc2O1 | -2.26%
66 | COc1c2ccoc2nc2c(OC)c(OCC(O)C(C)(C)O)ccc12 (stereo not given) | -32.1%
67 | C#CCCCCCCCCCCCC(O)CC(O)CO (stereo not given) | -21.3%
68 | COc1cc2ccc(=O)oc2c(OC)c1OC | -11.5%
69 | COc1ccc(-c2cc(=O)c3c(O)cc(O)cc3o2)cc1O | -28.6%
70 | CC(=O)OCC(COC(C)=O)OC(C)=O | -14.5%
71 | O=C(Cn1ccnc1[N+](=O)[O-])NCCO | -33.5%
72 | CCOc1cccc(C(=O)c2ccc(O)c(O)c2O)c1 | 16.3%
73 | NC(=O)N1c2ccccc2C=Cc2ccccc21 | -9.35%
74 | COc1ccc2c(c1)OCc1c-2oc2cc(OC)ccc12 | -3.77%
75 | COc1ccc([C@H]2COc3c(ccc(O)c3OC)C2)c(OC)c1O | -11.3%

Row | SMILES | growth inhibition
76 | CN(C)CCN(Cc1cccs1)c1ccccn1 | -10.4%
77 | O=C(O)c1cc2ccccc2[nH]1 | 5.41%
78 | O=c1c(O)cccc2cc(O)c(O)c(O)c12 | 52.6%
79 | Cc1ccc(S(=O)(=O)NC(=O)NN2CC3CCCC3C2)cc1 (stereo not given) | -4.04%
80 | COc1ccc(-c2cc(=O)c3c(O)cc(O)cc3o2)cc1 | -7.53%
81 | CC(=O)N[C@@H](CC(=O)N[C@@H](CCC(=O)O)C(=O)O)C(=O)O | -6.82%
82 | CC(=O)Oc1ccc2c(c1C(C)C)CCC1C(C)(C)CCC[C@]21C (stereo not given in full) | 2.83%
83 | CCn1cc(C(=O)O)c(=O)c2cnc(N3CCNCC3)nc21 | -2.84%
84 | COc1cc2nc(N3CCN(C(=O)c4ccco4)CC3)nc(N)c2cc1OC | -8.86%
85 | Oc1c(I)cc(I)c2cccnc12 | -1.75%
86 | CC1(C)C(=O)CC[C@@]2(C)C1C[C@@H](O)[C@@]1(C)C3=CC(=O)O[C@@H](c4ccoc4)[C@]3(C)CCC21 (stereo not given in full) | -17.7%
87 | CCN(CC)CCNC(=O)c1cc(S(C)(=O)=O)ccc1OC | -0.324%
88 | O=C(CCCN1CC=C(n2c(=O)[nH]c3ccccc32)CC1)c1ccc(F)cc1 | -10.3%
89 | CCCCCC(C)N (stereo not given) | -30.3%
90 | COc1cc2c(cc1OC)C1C(=O)c3c(OC)cc4c(c3OC1CO2)CCC(C)(C)O4 (stereo not drawn) [DIHYDRO-alpha-TOXICAROL METHYL ETHER] | -15.3%
91 | COc1ccc2cc(CCC(C)=O)ccc2c1 | 1.37%
92 | O=C(O)CCC(=O)OC[C@@H](NC(=O)C(Cl)Cl)[C@H](O)c1ccc([N+](=O)[O-])cc1 | -1.37%
93 | CCOc1ccc(C(=O)c2cc(O)c(OC)c(OC)c2O)cc1 | 1.65%
94 | CCn1cc(C(=O)O)c(=O)c2ccc(C)nc21 | -6.89%
95 | COC(=O)[C@]1(C)CCC[C@]2(C)c3ccc(C(C)C)cc3C(=O)CC12 (stereo not given in full) | -45.1%
96 | C#CCN(C)Cc1ccccc1 | -26.2%
97 | CC(=O)O[C@H]1CC[C@@]2(C)[C@H](CC[C@@H]3[C@@H]2CC[C@]2(C)[C@@H]4[C@H](C[C@@H]32)O[C@]2(CC[C@@H](C)CO2)[C@H]4C)C1 | -4.12%
98 | Cc1ncc([N+](=O)[O-])n1CCO | -1.71%
99 | CCN(Cc1ccncc1)C(=O)C(CO)c1ccccc1 (stereo not given) | 15.9%
100 | CC(C)CCC[C@@H](C)[C@H]1CC[C@H]2[C@@H]3CC=C4CC(=O)CC[C@]4(C)[C@H]3CC[C@]12C | -10.3%

A stretch of the results above:
Row | SMILES | growth inhibition
46 | Nc1ncn([C@@H]2O[C@H](CO)[C@@H](O)[C@H]2O)c(=O)n1 | -3.31%
47 | CC(COc1ccccc1)N(CCCl)Cc1ccccc1 (stereo not given) | -6.23%
48 | C=C1c2cccc(O)c2C(=O)C2=C(O)[C@]3(O)C(=O)C(C(N)=O)=C(O)[C@@H](N(C)C)[C@@H]3[C@@H](O)[C@H]12 | -17.3%
49 | COc1cc2cc3c4cc(OC)c(OC)cc4cc[n+]3c(C)c2cc1OC | -6.41%
50 | C#CCCCCCCCCCCCC(=O)CC(O)COC(C)=O (stereo not given) | -5.92%
51 | Cn1c(=O)c2nc[nH]c2n(C)c1=O | -18.7%
52 | CC(C)(C)NC[C@H](O)COc1nsnc1N1CCOCC1 | -22.2%
53 | C[C@]12CCC(=O)C=C1CC[C@@H]1[C@@H]2[C@@H](O)C[C@@]2(C)[C@H]1CC[C@]2(O)C(=O)COC(=O)CCC(=O)O | -5.11%
54 | NC1(C(=O)O)CCCC1 | -6.14%
55 | NCCCC[C@H](N[C@@H](CCc1ccccc1)C(=O)O)C(=O)N1CCC[C@H]1C(=O)O | -6.22%
56 | O=C(Oc1cc(OC(=O)c2ccccc2)c2c(c1)O[C@H](c1ccc(OC(=O)c3ccccc3)c(OC(=O)c3ccccc3)c1)[C@@H](OC(=O)c1ccccc1)C2)c1ccccc1 | 1.65%
57 | COc1ccc(-c2coc3c(OC)c(O)ccc3c2=O)cc1 | -16.3%
58 | O=C(Cc1cccs1)N[C@@H]1C(=O)N2C(C(=O)[O-])=C(C[n+]3ccccc3)CS[C@H]12 | -3.47%
59 | CO/N=C(\C(=O)N[C@@H]1C(=O)N2C(C(=O)O)=C(CSc3nc(=O)c(O)nn3C)CS[C@H]12)c1csc(N)n1 | -7.99%
60 | CCOC(=O)OC(C)OC(=O)[C@@H]1N2C(=O)[C@@H](NC(=O)[C@H](N)c3ccccc3)[C@H]2SC1(C)C (stereo not given in full) | -3.47%
61 | CCOC(=O)[C@H](CCc1ccccc1)N[C@H]1CCc2ccccc2N(CC(=O)O)C1=O | -25.7%
62 | CC(=O)N[C@@H](CC(C)C)C(=O)O | 3.45%
63 | Nc1nc(=O)c2nc(CNc3ccc(C(=O)N[C@@H](CCC(=O)O)C(=O)O)cc3)cnc2[nH]1 | -4.31%
64 | CC[C@H]1OC(=O)[C@H](C)[C@@H](O[C@H]2C[C@@](C)(OC)[C@@H](O)[C@H](C)O2)[C@H](C)[C@@H](O[C@@H]2O[C@H](C)C[C@H](N(C)C)[C@H]2O)[C@](C)(O)C[C@@H](C)/C(=N\OCOCCOC)[C@H](C)[C@@H](O)[C@]1(C)O | 0.462%
65 | CC(C)(O)[C@@H]1Cc2cc3ccc(=O)oc3cc2O1 | -2.26%
66 | COc1c2ccoc2nc2c(OC)c(OCC(O)C(C)(C)O)ccc12 (stereo not given) | -32.1%
